Data as given in PubChem BioAssay AID493185 (National Center for Advancing Translational Sciences (NCATS), 2011).
The inconclusive results got no clear call from the source. Potencies of inconclusive entries are doubtful fits and often do not repeat.

Assay: Counterscreen for Identifying a Potential Treatment of Ataxia-Telangiectasia: Hit Validation
Conditions: cell-free AlphaLISA/AlphaScreen artifact counterscreen, PBS only, no cells; active = well fitted activation curve with a large enough effect; inconclusive = small, poorly fitted or top-dose-only effect; inactive = no such curve, though single readings can be large or run the other way
Source text: NIH Chemical Genomics Center [NCGC]
NIH Molecular Libraries Probe Centers Network [MLPCN]
Assay Submitter (PI): Wei Zheng and Yosef Shiloh
Ataxia-telangiectasia (A-T) is a devastating and progressive disease for which, there is no cure. Although A-T is a multisystem disease, it is stereotyped characterized by its neurological symptoms such as truncal ataxia, due to cerebellar cortical degeneration of the Purkinje and granule cells. Other symptoms of A-T are telangiectasias (dilated blood vessels), primary immunodeficiency, marked sensitivity to ionizing radiation (IR), chromosomal instability and predisposition to cancer.
The underlying genetic cause of A-T is null mutations in the ATM (A-T mutated) gene. ATM is a nuclear serine/threonine kinase that functions as a master regulator of the cellular responses to double strand breaks (DSBs) in the DNA. Upon activation by DSBs, ATM phosphorylates a plethora of downstream targets, including KAP-1 on […]. KAP-1 phosphorylation occurs shortly in response to DSBs and mediates global chromatin relaxation, which facilitates DSB repair. To screen for small molecules that will compensate for the loss of ATM in cells derived from A-T patients, we monitored KAP-1 phosphorylation as a readout for ATM-like activity using an AlphaLISA assay.
3. Library compounds, 23 nl, 76.7 - 0.61uM dilution series final concentration
4. Incubation, 60 min, 37C, 5% CO2, 95% humidity
6. Incubation, 30 min, 37C, 5% CO2, 95% humidity
7. Reagent, 1 ul, Premixed detection reagents and lysis buffer
8. Reagent, 1 ul, 0.6% Antifoam A
9. Incubation, 6 hr, 25C, 95% humidity
10. Readout, EnVision, EnVision plate reader. AlphaScreen 1536-well protocol
PBS was dispensed into medium-binding white solid-bottom tissue culture treated Kalypsys plates with a Multidrop dispenser. […] EnVision protocol for 1536-well AlphaScreen read (30ms excitation, 100ms read), about 10 min/plate. […]
Potency is the fitted concentration of half-maximal effect.

Structure (SMILES)	Potency
CC(NC(=O)COC(=O)/C=C/c1ccc(Cl)cc1)c1ccccc1 (stereo not drawn)	inconclusive: 58.2 µM [activator, partial curve, poor fit]
COCCNC(=O)c1c(N)n(-c2cccc(C)c2)c2nc3ccccc3nc12	inconclusive: 32.8 µM [activator, partial curve, poor fit]
CC1C(c2ccccc2)N(C)C(c2ccccc2)CC1(O)c1ccccc1 (stereo not drawn)	inconclusive: 10.4 µM [activator, partial curve, poor fit]
